# Record: PubChem BioAssay AID720505 (Drosophila RNAi Screening Center, 2013)
# Screen: 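Genes needed for store-operated calcium entry in fly cells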 (primary screen)
# Cells: Drosophila S2R+ cells
# Reagent: long dsRNA against Drosophila genes
# Challenge: thapsigargin (2 µM) in calcium-free buffer to empty internal stores, then 2 mM calcium added back
# Detection: 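Fluo-4 signal in 384-well plates read on a FLIPR after thapsigargin (2 µM, calcium-free) store depletion and 2 mM calcium add-back; unnormalised mean endpoint per well; screen run twice, selected wells retested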
# Direction: calcium signal and retest calcium signal: higher = more calcium entry after store depletion
# Hit rule: 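About 1500 genes called as lowering calcium entry, by varying amounts, judged against per-plate control wells with STIM1 as positive and Rho1 as negative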
# Calls: active = called as lowering calcium entry; inactive = not called
# The screen tested about 20,000 reagents; this is a random part of those that have a named target and a result. Of all reagents, about 2,100 (10%) were called active. 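Raw plate signals without normalisation; calls rest on control-based scores that were not deposited; replicate 2 separates called from uncalled poorly.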 Names joined by + are all predicted targets of the reagent. Not stated in the record: the amount of reagent, the time to read-out.
Target gene,DRSC id,"calcium signal, replicate 1","calcium signal, replicate 2","retest calcium signal, replicate 1","retest calcium signal, replicate 2",Call
Prp3,DRSC10912,75.4,106,,,inactive
mus302,DRSC09905,129,173,,,inactive
CG2126,DRSC15418,162,146,,,inactive
tinc,DRSC14798,123,120,,,inactive
tinc,DRSC14799,104,125,,,inactive
tinc,DRSC16308,148,78,,,inactive
tinc,DRSC16309,118,75.7,,,inactive
Sfp38D,DRSC01810,85.5,6983,,,inactive
sit,DRSC15760,117,102,,,inactive
CG8301,DRSC16405,180,98.2,,,inactive
Nhe1,DRSC00762,63.5,115,,,active
CG42299 + CG42300,DRSC19680,91.9,124,,,inactive
CG42299 + CG42300,DRSC19815,85.4,121,,,inactive
HPS1,DRSC06195,168,148,,,inactive
CG8888,DRSC07294,220,127,,,inactive
CG8888,DRSC07295,110,133,,,inactive
CG15919,DRSC06594,126,154,,,inactive
CG14000 + bchs,DRSC02333,184,125,,,inactive
Ldsdh1,DRSC18219,168,136,,,inactive
TrissinR,DRSC02334,230,149,,,inactive
TrissinR,DRSC02335,194,94.7,,,inactive
TrissinR,DRSC02336,125,138,,,inactive

Next part, starting with the last 5 of the part before.
Target gene,DRSC id,"calcium signal, replicate 1","calcium signal, replicate 2","retest calcium signal, replicate 1","retest calcium signal, replicate 2",Call
CG14000 + bchs,DRSC02333,184,125,,,inactive
Ldsdh1,DRSC18219,168,136,,,inactive
TrissinR,DRSC02334,230,149,,,inactive
TrissinR,DRSC02335,194,94.7,,,inactive
TrissinR,DRSC02336,125,138,,,inactive
CG34273,DRSC13041,,,,,inactive
IntS10,DRSC08173,63.1,136,,,inactive
CG7102,DRSC02647,115,195,,,inactive
CG7102,DRSC03007,138,115,,,inactive
CG9331,DRSC03206,95.7,78.4,,,inactive
Ufl1,DRSC12527,86.8,90.5,,,inactive
Eip74EF,DRSC10613,98.9,89.3,,,inactive
Eip74EF,DRSC11160,88.6,196,,,inactive
uno,DRSC07244,114,131,,,inactive
gprs,DRSC06761,131,142,,,inactive
Chd3,DRSC11114,106,124,,,inactive
CG15605,DRSC06558,98.9,116,,,inactive
Dop2R,DRSC20683,49.4,139,,,active
Dop2R,DRSC20686,188,100,,,inactive
CG14720,DRSC14942,176,111,,,inactive
Fam92,DRSC02952,99.1,94.5,,,inactive
CG32536 + CG32537,DRSC20074,121,103,7201,161,inactive
narya,DRSC19439,206,149,,,inactive
Nop17l,DRSC06556,157,157,,,inactive
zuc,DRSC02160,118,122,,,inactive
Mst87F,DRSC16747,103,153,,,inactive
CG17597,DRSC02630,85.3,112,,,inactive
l(1)G0289,DRSC18215,129,135,,,inactive
CG42307 + mus312,DRSC11008,70,63,,,inactive
CG31759,DRSC01230,259,97.4,,,inactive
CG33233,DRSC08239,86.8,113,,,inactive
CG34404,DRSC15335,124,78.8,,,active
CG34404,DRSC15978,90.1,105,,,inactive
TwdlC,DRSC14749,164,126,,,inactive
Fit2,DRSC10908,124,134,,,inactive
v,DRSC20383,98.3,74.5,,,inactive
CG13674,DRSC10033,90.8,77.2,,,inactive
CG16986,DRSC08502,83.1,74.5,,,inactive
CG34357,DRSC12211,96.9,103,,,inactive
CG34357,DRSC12238,117,146,,,inactive
CG34357,DRSC12334,108,149,,,inactive
CG34357,DRSC23031,115,186,,,inactive
